In PubChem BioAssay AID2685 (National Center for Advancing Translational Sciences (NCATS), 2010):
Some of the results follow. These are further read-outs of the screen, such as a control signal, another cell line or another target. No call is given for them. Most of these compounds were active or inconclusive in the main read-out, so they are no random draw. The note in brackets gives the kind of curve behind each potency; many fits are weak.

Experiment: qHTS Assay for Lipid Storage Modulators in Drosophila S3 Cells;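 on cell number change: cells counted by Cell Tracker Red CMTPX staining in the red channel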
Details: BODIPY lipid droplet fluorescence, 18-24 h; for cell number change: measured here: cell count max response, cells fed with added oleic acid
Method in brief: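 Drosophila S3 cells loaded with oleic acid (400 uM, as added) and compounds at several concentrations; lipid droplets imaged by 488-nm laser-scanning cytometry, 500–530 nm intensity and object ratio to cell channel. Percent activity normalized to 20 uM Triacsin C.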

[1] = measured here: lipid fluorescence (Fed channel) AC50, cells fed with added oleic acid
[2] = measured here: cell number channel AC50, cells fed with added oleic acid

Structure (SMILES) | AC50 [1] | cell number change | AC50 [2]
O=C(NC(=O)N1CCCC1)c1csnn1 | 0.651 µM [rising, single point] |  | 
O=C(COc1ccc2ccccc2c1)NNC(=O)c1cnccn1 | 6.51 µM [rising, partial curve] | -17.9% | 
Cc1nn(-c2ccc(C(F)(F)F)cn2)c(C)c1Oc1ccccc1O |  | -87.1% | 14.6 µM [falling, partial curve, poor fit]
CCOC(=O)C(=O)/C(C#N)=C/Nc1ccc(Cl)cc1 |  | 61.3% | 18.4 µM [rising, single point]
CC1CC(=O)N(CC(=O)Nc2ccc3c(c2)OCCO3)c2ccccc2S1 (stereo unspecified) | 29.1 µM [rising, single point] | -24.1% | 
CCN(CC)C(=O)C1CCCN(Cc2ccccc2)C1 (stereo unspecified) | 0.259 µM [falling, full curve] |  | 
CN(C)c1ccc(C(=O)OCC#CCSc2nnc(-c3cccc4ccccc34)o2)cc1 | 0.0259 µM [rising, full curve, poor fit] | 2.3% | 
N/C(=N\NC(=O)Nc1ccc(Cl)cc1)c1ccccn1 | 0.164 µM [falling, full curve] | -37.8% | 0.206 µM [falling, full curve]
O=c1c(Cl)c(NCc2ccccc2)cnn1C12CC3CC(CC(C3)C1)C2 | 2.59 µM [falling, full curve] | -52.3% | 14.6 µM [falling, partial curve]
CC1C(=O)Nc2ccc(S(=O)(=O)Nc3ccccc3Br)cc2NC1=O (stereo unspecified) | 0.00731 µM [rising, full curve, poor fit] | 23.3% | 
Cc1ccc(N(Cc2cc3ccc(C)cc3[nH]c2=O)S(=O)(=O)c2ccccc2)c(C)c1 | 29.1 µM [rising, single point] |  | 
O=C(NCCc1ccccc1)C1CCN(S(=O)(=O)c2cccs2)CC1 | 4.11 µM [rising, partial curve, poor fit] | -6.91% | 
Cc1cc(/C=N/O)c(C)n1-c1cccc(Cl)c1 |  | -56.5% | 
O=C(NNC(=O)c1csc(N2CCOCC2)n1)c1ccc(Cl)nc1 | 23.1 µM [falling, single point] | 10.5% | 
CC(C)N1CCN(Cc2ccc(Oc3ncccn3)cc2)CC1CCO (stereo unspecified) | 0.092 µM [falling, full curve, poor fit] | 3.1% | 
O=S(=O)(c1ccccc1)c1ncc(C(F)(F)F)cc1Cl | 0.0291 µM [falling, full curve, poor fit] | -65.2% | 5.8 µM [falling, partial curve]
C=CCNC(=O)COC(=O)c1cc(S(=O)(=O)N2CCOCC2)ccc1N1CCCCC1 | 6.51 µM [falling, partial curve, poor fit] | -22.9% | 6.51 µM [falling, partial curve, poor fit]
CNC(=O)c1sc(Nc2cc(C)ccc2C)nc1C |  |  | 6.51 µM [rising, single point]
O=C(NCCCl)Nc1ccc(Cl)c([N+](=O)[O-])c1 |  | 50.2% | 11.6 µM [rising, partial curve]
CCOC(=O)CCC(NC(=O)c1ccc(NCN2C(=O)c3ccccc3C2=O)cc1)C(=O)OCC (stereo unspecified) |  | 34.7% | 

Structure (SMILES) | AC50 [1] | cell number change | AC50 [2]
CC1CCN(CCOc2ccc(Cl)c(Cl)c2)CC1 | 0.58 µM [rising, single point] | -0.647% | 
COc1ccc(OC)c(C(=O)CSc2nc3ccccc3n2CC(=O)NC(C)(C)C)c1 | 1.3 µM [rising, partial curve] |  | 2.31 µM [rising, partial curve]
Cc1cc(NC(=O)C(C)SCC(=O)OCc2ccc([N+](=O)[O-])cc2)no1 (stereo unspecified) |  | -13.7% | 
CCc1ccc(C(=O)/C=C/Nc2ccc(S(=O)(=O)Nc3onc(C)c3C)cc2)cc1 | 18.4 µM [rising, partial curve] | -43.8% | 0.184 µM [rising, partial curve, poor fit]
Cc1cc(OCn2ccc(C(=O)O)n2)ccc1Cl |  | 29.3% | 
COc1ccc(C2CC(c3ccccc3)=NN2c2ccc(Cl)c(C(=O)O)c2)cc1 (stereo unspecified) | 9.2 µM [falling, partial curve] | -23% | 
O=C(c1cc2ccccc2oc1=O)N(Cc1ccco1)C1CCS(=O)(=O)C1 (stereo unspecified) | 0.731 µM [falling, full curve] | 3.36% | 
Cc1ccc(Oc2ccc3c(c2)C(=O)N(c2cccc4cccnc24)C3=O)cc1 | 8.2 µM [falling, partial curve] | -2.56% | 
COc1ccc(CN2CCNC(=O)C2CC(=O)N(C)Cc2cc(C)no2)cc1OC (stereo unspecified) | 0.00461 µM [rising, full curve, poor fit] | 5.78% | 
CC(=O)Nc1ccc(S(=O)(=O)N2CCSC2c2ccccc2Cl)cc1 (stereo unspecified) |  | -87.4% | 29.1 µM [falling, single point]
CC(=O)NC(=S)Nc1ccc(NC(=O)COc2ccc(Cl)cc2)cc1 |  |  | 0.82 µM [rising, full curve]
CCOc1ccc(-n2c(-c3ccccc3)nnc2-c2ccccc2)cc1 | 0.651 µM [falling, full curve, poor fit] | 8.16% | 
COc1ccc(N(C(=O)c2ccco2)S(=O)(=O)c2cc(Cl)c(Cl)cc2Cl)cc1 | 16.4 µM [rising, partial curve] | 47.5% | 29.1 µM [rising, single point]
O=S(=O)(c1ccc(Br)cc1)c1nc(-c2ccco2)oc1NCCCn1ccnc1 |  | -50% | 4.61 µM [falling, full curve, poor fit]
CCCC(=O)c1cc2c(cc1NC(=O)CC)OCCO2 |  | 7.79% | 
Cc1ccccc1NC(=O)C1CCCN(c2ncnc3onc(-c4ccc(F)cc4)c23)C1 (stereo unspecified) | 29.1 µM [rising, single point] | -4.2% | 
Cc1oc2ccc(OCc3ccc(F)cc3)cc2c1C(=O)O | 0.184 µM [falling, full curve, poor fit] | -20.9% | 
O=C(Nc1ccccc1)c1ccco1 | 4.11 µM [falling, full curve] | -9.12% | 
COc1ccccc1NC(=O)C(C)n1cnc2c(oc3nc4c(cc32)CCCC4)c1=O (stereo unspecified) | 4.11 µM [rising, single point] |  | 
Cc1cc(OCC(=O)Nc2ccccc2N2CCCCC2)ccc1C(C)C | 29.1 µM [falling, single point] | -50.3% | 29.1 µM [falling, single point]

Structure (SMILES) | AC50 [1] | cell number change | AC50 [2]
O=C(/C=C/c1cccs1)N1CCN(c2ccc(F)cc2)CC1 | 29.1 µM [rising, single point] | 30.1% | 32.6 µM [rising, single point]
c1coc(-c2nc3c4c5c(sc4ncn3n2)CCCC5)c1 | 1.84 µM [rising, partial curve] | -12.8% | 
COc1ccc(N2CCN(c3nc(NCCc4ccc(OC)c(OC)c4)nc(OC)n3)CC2)cc1 |  | 24.9% | 0.0651 µM [rising, full curve, poor fit]
O=C(NN(c1ccccc1)c1ccccc1)c1ccc([N+](=O)[O-])o1 | 29.1 µM [rising, single point] | 42.5% | 14.6 µM [rising, single point]
Cc1ccc(NC(=O)C2CCN(S(=O)(=O)c3cccs3)CC2)c(O)c1 | 6.31 µM [rising, single point] | 5.79% | 
CC1CC(C)CN(C(=O)Cn2c(=O)n(CCCC(=O)NCc3ccco3)c(=O)c3sccc32)C1 (stereo unspecified) | 6.51 µM [rising, single point] | -13.3% | 
Cn1c(=O)[nH]c(=O)c2c1nc(NCc1ccccc1)n2CCCc1ccccc1 | 29.1 µM [rising, single point] | 2.78% | 
CN(C)/C=C(/C(=O)c1ccc(Cl)cc1Cl)S(=O)(=O)c1ccccc1 |  | -25.7% | 
CCCNS(=O)(=O)c1ccc(CCC(=O)N2CCC(C)CC2)cc1 |  | 182% | 29.1 µM [rising, single point]
COc1ccc(S(=O)(=O)N(C)CC(=O)Nc2ccc(C(F)(F)F)cc2)cc1Cl |  | -12.9% | 6.51 µM [falling, single point]
N#Cc1cc2ccccc2n2nnnc12 | 29.1 µM [falling, single point] | 2.25% | 
COc1ccc(C2=NOC(Cn3nc(-c4ccccc4)cc3C(=O)O)C2)cc1 (stereo unspecified) |  | -28.9% | 0.092 µM [falling, full curve, poor fit]
CCOc1ccccc1CNC(=O)C1CCCN(c2nc3ccccc3o2)C1 (stereo unspecified) | 0.291 µM [rising, full curve, poor fit] | -2.86% | 
COc1ccc(NC(=S)N2CCN(S(C)(=O)=O)CC2)cc1 | 18.4 µM [rising, single point] | 16.2% | 
COc1ccccc1NC(=O)N1CCCC1C(=O)NCc1ccc(F)cc1 (stereo unspecified) |  | 0.748% | 
CCN(CC)C(=O)CP(=O)(c1ccccc1)c1ccccc1 | 6.51 µM [falling, single point] | 2.48% | 
CCC(C)NC(=O)C1CCN(C(=O)N(C)C)CC1 (stereo unspecified) | 29.1 µM [falling, single point] | -54.4% | 9.2 µM [falling, partial curve, poor fit]
Cc1cc(NC(=O)CSc2nc(-c3ccco3)cc(C(F)(F)F)n2)no1 | 1.84 µM [falling, full curve, poor fit] | -8.88% | 
CNC(=O)NC(=O)COC(=O)CCCOc1ccc(OC)cc1 | 0.013 µM [falling, full curve, poor fit] | 1.02% | 0.00517 µM [falling, full curve, poor fit]

Part of the list above in order of number of heavy atoms, rising.
Structure (SMILES) | AC50 [1] | cell number change | AC50 [2]
O=C(/C=C/c1cccs1)N1CCN(c2ccc(F)cc2)CC1 | 29.1 µM [rising, single point] | 30.1% | 32.6 µM [rising, single point]
CCCNS(=O)(=O)c1ccc(CCC(=O)N2CCC(C)CC2)cc1 |  | 182% | 29.1 µM [rising, single point]
COc1ccc(S(=O)(=O)N(C)CC(=O)Nc2ccc(C(F)(F)F)cc2)cc1Cl |  | -12.9% | 6.51 µM [falling, single point]
